Laboratory results: the NIST ThermoML archive (doi:10.1016/j.fluid.2005.07.009)

Assay: molar heat capacity at constant pressure
Details: 101.33 kPa, Small sample (50 mg) DSC

CCCCCCCCCO [nonan-1-ol]
Details	molar heat capacity at constant pressure [J/K/mol]
217.02 K, Crystal	195.3
218.14 K, Crystal	196.38
219.82 K, Crystal	196.77
220.01 K, Crystal	196.98
221.07 K, Crystal	197.26
222.06 K, Crystal	199.54
223.11 K, Crystal	200.68
224.89 K, Crystal	201.22
225.38 K, Crystal	201.57
226.05 K, Crystal	203.08
227.04 K, Crystal	204.3
228.26 K, Crystal	206.7
229.23 K, Crystal	207.14
230.03 K, Crystal	207.39
231.26 K, Crystal	211.42
233.02 K, Crystal	212.23
233.27 K, Crystal	212.33
234.62 K, Crystal	212.65
235.18 K, Crystal	215.05
236.09 K, Crystal	217.22
237.12 K, Crystal	218.22
238.16 K, Crystal	219.07
239.02 K, Crystal	219.63
240.11 K, Crystal	221.25
241.15 K, Crystal	223.4
242.06 K, Crystal	224.92
243.08 K, Crystal	227.73
244.17 K, Crystal	228.57
245.08 K, Crystal	231.13
246.16 K, Crystal	232.99
281.12 K, Liquid	323.47
283.23 K, Liquid	325.33
285.32 K, Liquid	327.22
287.14 K, Liquid	329.03
289.01 K, Liquid	330.95
291.14 K, Liquid	333.2
293.02 K, Liquid	335.22
295.38 K, Liquid	338.09
297.54 K, Liquid	340.92
299.13 K, Liquid	342.32
301.41 K, Liquid	344.69
303.29 K, Liquid	346.6
305.67 K, Liquid	349.55
307.02 K, Liquid	350.87
309.17 K, Liquid	353.11
311.06 K, Liquid	355.46
313.19 K, Liquid	358.03
315.22 K, Liquid	360.47
317.08 K, Liquid	362.75
319.19 K, Liquid	364.89
321.24 K, Liquid	367.74
323.77 K, Liquid	370.56
326.13 K, Liquid	373.42
330.1 K, Liquid	378.15
